Data from article PMC5435539 (Journal of applied toxicology : JAT, 2017).

Tests used:
[1] = test system: MCF-10A breast epithelial cells; experiment: Cell viability assay; assay type: cell-based; conditions: Homo sapiens, 24 h, read-out: IC50 MCF-10A
[2] = test system: MCF-7 cells; experiment: Alamar Blue cell viability assay, 24 h; assay type: cell-based; conditions: Homo sapiens, MCF7, 24 h, read-out: IC50 MCF-7 (Alamar Blue)

IC50 [2]: 18 ± 2.21 µM
Structure (SMILES): CC/C(=C(\c1ccccc1)c1ccc(OCCN(C)C)cc1)c1ccccc1 [Tamoxifen, reference compound]
IC50 [1]: 38.9 ± 1.19 µM
